Data: US10435385B2, “Amide derivatives, process for preparation thereof and use thereof as insecticide” (MITSUI CHEMICALS, INC., priority 2004, dated 2019)
Some results were stated once for a whole list of compounds, not compound by compound.

Key:
Format in all cases: in vivo
[1] = system: common cutworm (Spodoptera litura); experiment: Insecticidal testing against common cutworm (cabbage leaf dip, second-stage larvae); conditions: concentration of 100 ppm, survival rate investigated after 3 days, 25° C.
[2] = system: diamondback moth (Plutella xylostella); experiment: Insecticidal testing against diamondback moth (cabbage leaf dip, second-stage larvae); conditions: concentration of 100 ppm, survival rate investigated after 3 days, 25° C.
[3] = system: small brown planthopper (Laodelphax striatellus); experiment: Insecticidal testing against small brown planthopper (acetone solution sprayed on rice); conditions: concentration of 1000 ppm; survival rate investigated after 6 days; 25° C.

Measured: pesticidal rate

CS(=O)(=O)c1cc(C(F)(C(F)(F)F)C(F)(F)F)cc(Cl)c1NC(=O)c1cccc(NC(=O)c2cccnc2Cl)c1 [compound 202]
≥ 70%: all assays above

CCc1cc(C(F)(C(F)(F)F)C(F)(F)F)cc(I)c1NC(=O)c1cccc(NC(=O)c2ccccc2F)c1 [compound 172]
≥ 70%: all assays above

Cc1cc(C(F)(C(F)(F)F)C(F)(F)C(F)(F)F)cc(C)c1NC(=O)c1cccc(NC(=O)c2ccccc2)c1F (stereo not drawn) [compound 665]
≥ 70%: all assays above

CCc1cc(C(F)(C(F)(F)F)C(F)(F)F)cc(I)c1NC(=O)c1cccc(NC(=O)c2ccccc2)c1 [compound 171]
≥ 70%: all assays above

Cc1cc(C(F)(C(F)(F)F)C(F)(F)C(F)(F)F)cc(C)c1NC(=O)c1cccc(N(C)C(=O)c2cccc(C#N)c2)c1F (stereo not drawn) [compound 1263]
≥ 70%: all assays above

Cc1ccccc1C(=O)N(C)c1cccc(C(=O)Nc2c(C)cc(C(F)(C(F)(F)F)C(F)(F)F)cc2C)c1F [compound 1209]
≥ 70%: all assays above

CCCc1cc(C(F)(C(F)(F)F)C(F)(F)F)cc(I)c1NC(=O)c1cccc(NC(=O)c2ccc([N+](=O)[O-])cc2)c1 [compound 184]
≥ 70%: all assays above

Cc1ccc(C(=O)N(C)c2cccc(C(=O)Nc3c(C)cc(C(F)(C(F)(F)F)C(F)(F)F)cc3C)c2F)cc1 [compound 1211]
≥ 70%: all assays above

CCCc1cc(C(F)(C(F)(F)F)C(F)(F)F)cc(Br)c1NC(=O)c1cccc(NC(=O)c2ccc(C#N)cc2)c1 [compound 181]
≥ 70%: all assays above

CCc1cc(C(F)(C(F)(F)F)C(F)(F)F)cc(I)c1NC(=O)c1cccc(NC(=O)c2ccc(C#N)cc2)c1 [compound 174]
≥ 70%: all assays above

CCCc1cc(C(F)(C(F)(F)F)C(F)(F)F)cc(Br)c1NC(=O)c1cccc(NC(=O)c2ccccc2)c1 [compound 178]
≥ 70%: all assays above

Cc1cc(C(F)(C(F)(F)F)C(F)(F)F)cc(C)c1NC(=S)c1cccc(NC(=O)Sc2ccccc2)c1 [Compound No. 2203, N-(2,6-dimethyl-4-heptafluoroisopropyl)phenyl 3-(phenylthiocarbonylamino)benzthioamide]
≥ 70%: all assays above

CCCc1cc(C(F)(C(F)(F)F)C(F)(F)F)cc(I)c1NC(=O)c1cccc(NC(=O)c2ccc(C#N)cc2)c1 [compound 185]
≥ 70%: all assays above

Cc1cc(C(F)(C(F)(F)F)C(F)(F)F)cc(C)c1NC(=O)c1ccc(F)c(NC(=O)c2ccccc2)c1 [compound 650]
≥ 70%: all assays above

CCCc1cc(C(F)(C(F)(F)F)C(F)(F)F)cc(I)c1NC(=O)c1cccc(N(C)C(=O)c2ccccc2F)c1 [compound 1089]
≥ 70%: all assays above

CCN(C(=O)c1cccnc1)c1cccc(C(=O)Nc2c(C)cc(C(F)(C(F)(F)F)C(F)(F)F)cc2C)c1 [compound 1207]
≥ 70%: all assays above

Cc1cc(C(F)(C(F)(F)F)C(F)(F)F)cc(C)c1NC(=O)c1cccc(N(C)C(=O)c2cccc(F)c2)c1F [compound 1219]
≥ 70%: all assays above

Cc1cc(C(F)(C(F)(F)F)C(F)(F)F)cc(C)c1NC(=O)c1cccc(NC(=O)c2cccnc2Cl)c1 [Compound No. 106, N-(2,6-dimethyl-4-heptafluoroisopropyl)phenyl 3-[(2-chloropyridin-3-yl)carbonylamino]benzamide]
≥ 70%: all assays above

CCCc1cc(C(F)(C(F)(F)F)C(F)(F)F)cc(I)c1NC(=O)c1cccc(NC(=O)c2ccccc2F)c1 [compound 183]
≥ 70%: all assays above

Cc1cc(C(F)(C(F)(F)F)C(F)(F)F)cc(C)c1NC(=O)c1cccc(NC(=O)c2ccccc2F)c1F [compound 610]
≥ 70%: all assays above

O=C(Nc1cccc(C(=O)Nc2c(Br)cc(C(F)(C(F)(F)F)C(F)(F)F)cc2Br)c1)c1ccccc1 [compound 7]
≥ 70%: all assays above

CCCc1cc(C(F)(C(F)(F)F)C(F)(F)F)cc(Br)c1NC(=O)c1cccc(NC(=O)c2ccc([N+](=O)[O-])cc2)c1 [compound 180]
≥ 70%: all assays above

Cc1cc(C(F)(C(F)(F)F)C(F)(F)F)cc(C)c1NC(=O)c1cccc(NC(=O)c2ccc([N+](=O)[O-])cc2Cl)c1F [compound 633]
≥ 70%: all assays above

Cc1cc(C(F)(C(F)(F)F)C(F)(F)F)cc(C)c1NC(=O)c1cccc(N(C)C(=O)c2ccccc2)c1F [compound 1208]
≥ 70%: all assays above

Cc1cc(C(F)(C(F)(F)F)C(F)(F)F)cc(C)c1NC(=O)c1cccc(NC(=O)c2cccnc2)c1 [Compound No. 101, N-(2,6-dimethyl-4-heptafluoroisopropyl)phenyl 3-[(pyridin-3-yl)carbonylamino]benzamide]
≥ 70%: all assays above

CCCc1cc(C(F)(C(F)(F)F)C(F)(F)F)cc(C)c1NC(=O)c1cccc(NC(=O)c2ccc([N+](=O)[O-])cc2)c1 [compound 175]
≥ 70%: all assays above

Cc1cc(C(F)(C(F)(F)F)C(F)(F)F)cc(C)c1NC(=O)c1cccc(N(C)C(=O)c2cccnc2Cl)c1F [compound 1245]
≥ 70%: all assays above

Cc1cc(C(F)(C(F)(F)F)C(F)(F)F)cc(C)c1NC(=O)c1cccc(N(C)C(=O)c2ccc([N+](=O)[O-])cc2)c1F [compound 1214]
≥ 70%: all assays above

Cc1cc(C(F)(C(F)(F)F)C(F)(F)F)cc(C)c1NC(=O)c1cccc(N(C)C(=O)c2cccnc2F)c1F [compound 1246]
≥ 70%: all assays above

CCc1cc(C(F)(C(F)(F)F)C(F)(F)F)cc(C)c1NC(=O)c1cccc(NC(=O)c2ccccc2F)c1 [compound 165]
≥ 70%: all assays above

CCCc1cc(C(F)(C(F)(F)F)C(F)(F)F)cc(Br)c1NC(=O)c1cccc(NC(=O)c2ccccc2F)c1 [compound 179]
≥ 70%: all assays above

Cc1cc(C(F)(C(F)(F)F)C(F)(F)F)cc(C)c1NC(=O)c1cccc(NC(=O)c2cccnc2F)c1 [compound 105]
≥ 70%: all assays above

Cc1cc(C(F)(C(F)(F)F)C(F)(F)F)cc(C)c1NC(=O)c1ccc(F)c(NC(=O)c2ccc([N+](=O)[O-])cc2)c1 [compound 651]
≥ 70%: all assays above
